These are yes or no findings as the source states them, for the method shown. Binding seen in cells or lysates may run through a third protein. Some binding calls cover weakened binding; strength is not graded here.
Assays:
[1] = biological target: Gαo, alpha subunit of the heterotrimeric G protein Go (native, mouse brain) (mouse (endogenous in BALB/c mouse brain)) (UniProt P18872); test: co-IP; as a1 but lysate with 100 µM GTPγS (Gαo activated), 4 °C, 2 h; Gαo precipitated with anti-Gαo sc-13532 cross-linked to protein A/G agarose; read by protein stain and western blot
[2] = biological target: Gαo, alpha subunit of the heterotrimeric G protein Go (native, mouse brain) (mouse (endogenous in BALB/c mouse brain)) (UniProt P18872); test: co-IP; mouse brain lysate (2 mg/ml in IP buffer: 50 mM HEPES pH 7.4, 100 mM NaCl, 1 mM EDTA, 3 mM EGTA, 10 mM MgCl2, 1% Triton X-100) with 100 µM GDP, 4 °C, 2 h; Gαo precipitated with anti-Gαo sc-13532 cross-linked to protein A/G agarose; read by protein stain and western blot

Sequences of proteins named here, by UniProt entry; tags and fusion partners are left off.
UniProt P18872: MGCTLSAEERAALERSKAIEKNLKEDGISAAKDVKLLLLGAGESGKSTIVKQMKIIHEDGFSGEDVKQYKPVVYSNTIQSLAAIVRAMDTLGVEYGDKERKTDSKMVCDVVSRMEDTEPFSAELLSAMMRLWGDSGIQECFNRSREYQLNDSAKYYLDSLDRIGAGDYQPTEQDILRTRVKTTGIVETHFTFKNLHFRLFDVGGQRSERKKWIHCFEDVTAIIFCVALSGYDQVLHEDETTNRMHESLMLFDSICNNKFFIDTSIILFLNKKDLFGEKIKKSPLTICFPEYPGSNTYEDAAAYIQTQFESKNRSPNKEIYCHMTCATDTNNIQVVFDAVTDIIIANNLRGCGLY

B1: GPRIN-1 (G protein-regulated inducer of neurite outgrowth 1) (protein, UniProt Q3UNH4 1-932)
chain: MRDCCSSPKAIPAPPRHALDQSLGMDPRHTSSSGAAEGASCSERPAGSLACPSPNCSPLPETPRAHGALTSDNSGTTLFGKPEPMSSAEATPTASEIRNPVFSGKMDGNSLKQADSTSTRKEEAGSLRNEESMLKGKAEPMIYGKGEPGTVGRVDCTASGAENSGSLGKVDMPCSSKVDIVSPGGDNAGSLRKVETISSGKMDPKTENVMHSRRERPGSTGEGDLVSLRENDMKPPDNTDSASTKKTDPEFSGKLTPGSSGKTELVSSVTVAPVTSENVNPVCSGGAGPAAVGNSETLSSVKKDPQLLGKKEAVSSGEGGSVSVRMAETVSARQPEGMFPAKTDSTSSNSTGPSGRADPVSLRNSELVSPVKPERLSSGQAERVSLVKTETLSSGKEDPRSSRRVDHTTVTGNMQTSQKGNPESSGKTDLGSSSSGDTRSLGTWGSLSAAKAEVTEGKGDPQPWKKASLPASEKTDPLASSKAGSASQGKAETVSPGEVDAMTLGKTVPTSSGKTALVSPGKVDLMTSERAEGIPELQASEKGNPVNSTRVDTGATGSTEPKSGVKVITQIPGATSPGKVETPSLQKEQPQLSEKTDPSRKVDPPTTVEPVSLGKADSASPSPRKAESQTSAKTVPQAPDKATSSLRQSDGTPYSSAQPQRDTRSIGSLPEREPSASTSQKDLAAAAAQKSPSAEAAAPPPGPRTRDNFTKAPSWDAGAPPPREDAGTQAGAQACVSVAVSPMSPQDGAGGPAFSFQAAPRAPSPAPRPPSRRDAGLQVSLGAAETRSVATGPMTPQAAAPPAVPPVFPEVRVRPGSVLAAALAPQEATEPVRDVSWDEKGMTWEVYGASMEVEVLGMAIQKHLERQIEEHGRQGAPAPAPPPAVRAGPGRAGSVRTAPAEGAAKRPPGLFRALLQSVRRPRCCSRAGPTAE
With B1 the binding [1] was “binds” and the binding [2] was “no binding (condition: lysate with 100 µM GDP)”.

Reference: publication PMC12677461
